## Screening data, single-dose tests

Protein sequences, listed by entry. Tags and fused reporters are not part of them. Residues count along the entry.
UniProt I6X8D2, whole entry: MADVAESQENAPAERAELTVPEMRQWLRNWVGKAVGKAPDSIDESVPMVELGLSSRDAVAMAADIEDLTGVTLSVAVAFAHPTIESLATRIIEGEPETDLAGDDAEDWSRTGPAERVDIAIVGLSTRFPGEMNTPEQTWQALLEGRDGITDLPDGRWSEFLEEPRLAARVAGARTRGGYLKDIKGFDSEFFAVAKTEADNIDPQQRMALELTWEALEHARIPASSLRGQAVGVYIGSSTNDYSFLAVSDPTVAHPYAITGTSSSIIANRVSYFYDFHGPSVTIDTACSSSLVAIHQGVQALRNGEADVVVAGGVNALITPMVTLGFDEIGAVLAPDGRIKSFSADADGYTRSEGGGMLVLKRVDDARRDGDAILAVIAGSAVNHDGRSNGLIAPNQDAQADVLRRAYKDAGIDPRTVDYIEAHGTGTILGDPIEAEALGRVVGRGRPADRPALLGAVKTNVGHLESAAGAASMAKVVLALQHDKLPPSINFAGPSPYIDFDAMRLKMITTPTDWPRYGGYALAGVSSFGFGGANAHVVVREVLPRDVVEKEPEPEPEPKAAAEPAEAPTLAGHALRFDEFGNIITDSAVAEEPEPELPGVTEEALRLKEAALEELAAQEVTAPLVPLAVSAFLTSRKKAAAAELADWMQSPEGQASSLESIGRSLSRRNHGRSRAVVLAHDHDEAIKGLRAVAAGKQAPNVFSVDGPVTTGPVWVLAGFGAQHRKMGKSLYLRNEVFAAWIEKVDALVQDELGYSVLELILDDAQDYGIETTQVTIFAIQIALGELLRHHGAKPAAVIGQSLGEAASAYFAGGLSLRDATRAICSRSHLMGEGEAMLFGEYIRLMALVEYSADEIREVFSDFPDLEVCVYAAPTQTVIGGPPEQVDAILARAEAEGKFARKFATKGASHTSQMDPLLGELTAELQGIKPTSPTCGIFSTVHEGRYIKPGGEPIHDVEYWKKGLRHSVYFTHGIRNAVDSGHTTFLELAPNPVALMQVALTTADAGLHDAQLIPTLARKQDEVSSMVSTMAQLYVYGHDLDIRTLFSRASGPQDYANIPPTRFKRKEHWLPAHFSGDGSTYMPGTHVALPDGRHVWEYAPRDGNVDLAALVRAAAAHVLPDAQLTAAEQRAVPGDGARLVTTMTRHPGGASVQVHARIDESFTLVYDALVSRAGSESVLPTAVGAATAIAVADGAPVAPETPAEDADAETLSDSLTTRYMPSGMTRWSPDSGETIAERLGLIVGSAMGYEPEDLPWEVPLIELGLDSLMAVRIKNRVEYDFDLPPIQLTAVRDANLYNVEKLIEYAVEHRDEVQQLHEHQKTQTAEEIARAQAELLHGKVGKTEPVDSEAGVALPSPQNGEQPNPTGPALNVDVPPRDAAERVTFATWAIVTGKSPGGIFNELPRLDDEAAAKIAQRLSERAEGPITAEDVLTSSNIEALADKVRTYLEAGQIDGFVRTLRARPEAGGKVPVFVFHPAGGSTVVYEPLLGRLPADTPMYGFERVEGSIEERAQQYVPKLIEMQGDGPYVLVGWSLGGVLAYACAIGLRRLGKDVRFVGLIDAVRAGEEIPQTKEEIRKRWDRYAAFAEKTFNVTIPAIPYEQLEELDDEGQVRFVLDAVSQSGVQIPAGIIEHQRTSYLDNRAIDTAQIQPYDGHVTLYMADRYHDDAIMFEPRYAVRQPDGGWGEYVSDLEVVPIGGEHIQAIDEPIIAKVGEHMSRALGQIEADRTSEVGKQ
UniProt A4I591, 1-473: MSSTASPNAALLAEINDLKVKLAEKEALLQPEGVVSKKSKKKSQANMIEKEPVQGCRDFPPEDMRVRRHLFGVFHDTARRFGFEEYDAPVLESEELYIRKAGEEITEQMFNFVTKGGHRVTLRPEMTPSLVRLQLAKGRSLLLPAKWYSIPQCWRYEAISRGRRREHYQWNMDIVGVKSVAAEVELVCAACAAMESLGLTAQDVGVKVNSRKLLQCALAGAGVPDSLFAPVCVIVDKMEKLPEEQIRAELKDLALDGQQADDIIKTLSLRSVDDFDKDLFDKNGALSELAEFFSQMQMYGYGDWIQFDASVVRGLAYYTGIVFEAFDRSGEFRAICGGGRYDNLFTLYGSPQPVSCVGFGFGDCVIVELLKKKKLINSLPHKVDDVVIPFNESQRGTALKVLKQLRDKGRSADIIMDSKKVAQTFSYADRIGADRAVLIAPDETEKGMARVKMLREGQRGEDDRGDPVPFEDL
UniProt P9WPC5, whole entry: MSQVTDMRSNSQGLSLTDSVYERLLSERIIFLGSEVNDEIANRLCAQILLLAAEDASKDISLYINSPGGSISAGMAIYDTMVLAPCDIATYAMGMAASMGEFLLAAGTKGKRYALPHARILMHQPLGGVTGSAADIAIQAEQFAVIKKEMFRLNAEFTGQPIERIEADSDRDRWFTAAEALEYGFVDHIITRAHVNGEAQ
UniProt P9WPC3, whole entry partner: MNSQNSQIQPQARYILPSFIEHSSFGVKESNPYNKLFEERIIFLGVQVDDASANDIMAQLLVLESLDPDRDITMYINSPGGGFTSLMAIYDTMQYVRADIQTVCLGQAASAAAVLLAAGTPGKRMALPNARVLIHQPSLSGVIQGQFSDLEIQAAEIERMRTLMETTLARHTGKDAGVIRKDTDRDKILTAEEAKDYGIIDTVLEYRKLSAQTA
UniProt P9WNZ1, whole entry: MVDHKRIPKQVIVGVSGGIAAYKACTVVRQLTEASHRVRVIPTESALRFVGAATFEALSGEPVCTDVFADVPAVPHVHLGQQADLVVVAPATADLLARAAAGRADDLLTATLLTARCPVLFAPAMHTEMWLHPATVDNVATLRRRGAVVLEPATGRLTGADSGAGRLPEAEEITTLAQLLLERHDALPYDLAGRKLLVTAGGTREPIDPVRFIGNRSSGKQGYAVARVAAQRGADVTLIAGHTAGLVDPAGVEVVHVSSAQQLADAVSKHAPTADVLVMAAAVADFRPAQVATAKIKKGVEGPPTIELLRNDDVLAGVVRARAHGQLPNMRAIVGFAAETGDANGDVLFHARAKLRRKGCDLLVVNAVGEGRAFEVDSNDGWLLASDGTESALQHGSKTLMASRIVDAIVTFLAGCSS

Source: ChEMBL document CHEMBL3988442, “University of Dundee, Small-Polar-MMV Screening Library” (2021).

Pks13 thioesterase: 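Enzyme assay of the thioesterase domain of polyketide synthase 13; the read-out is not stated. Target: Polyketide synthase Pks13, Mycobacterium tuberculosis (UniProt I6X8D2). Tested at 30 µM. Higher reads as stronger inhibition (inferred from which compounds were picked for retests). Of about 67,000 compounds tested this way, about 300 (0.46%) reached 50% or more in at least one test.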
LiHisRS: 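Enzyme assay of histidyl-tRNA synthetase; the read-out is not stated. Target: Histidine-tRNA ligase, Leishmania infantum (UniProt A4I591). Tested at 30 µM. The record gives no direction; compounds that gave an IC50 in retests scored well above the rest, so higher reads as stronger inhibition. The assay is labelled LdHisRS but filed under L. infantum. Of about 69,000 compounds tested this way, about 410 (0.6%) reached 50% or more in at least one test.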
Leishmania in macrophages: 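Cell assay of Leishmania donovani living inside macrophages; the read-out is not stated. Concentration: 30 µM. Higher reads as stronger inhibition (inferred: compounds with an IC50 in retests scored well above the rest). Of about 69,000 compounds tested this way, about 1,000 (1.5%) reached 50% or more in at least one test.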
ClpP1P2: 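ClpP1P2, Mycobacterium tuberculosis (UniProt P9WPC5 and UniProt P9WPC3). Protease assay of ClpP1P2, read by the AMC dye that it sets free. Concentration: 50 µM. Direction is inferred from only a few compounds that gave an IC50; most scored high, so higher reads as stronger inhibition. Most other retested compounds had strongly negative values. About 69,000 compounds were tested under these conditions; 0.015% (about 10) showed 50% or more at least once.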
Toxoplasma: 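Assay of Toxoplasma gondii numbers, read through their beta-galactosidase reporter with a colour substrate. Tested at 10 µM. Higher reads as fewer parasites (inferred from which compounds were picked for retests). About 67,000 compounds were tested under these conditions; 0.38% (about 260) showed 50% or more at least once.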
CoaBC: 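Enzyme assay of CoaBC with a phosphate dye (Biomol Green) read at 650 nm. Target: Coenzyme A biosynthesis protein CoaBC, Mycobacterium tuberculosis (UniProt P9WNZ1). Concentration: 30 µM. Higher reads as stronger inhibition, judged from the few compounds that gave an IC50. Most strong results did not repeat in a second test. Size under these conditions: about 67,000 compounds, about 40 of them at 50% or above in at least one test.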

The filed quantity is “Percent Effect” (%).
The controls that fix the scale are not given in the record; negative values are as filed.
This is an unselected part of the compounds tested.
Two or more numbers in one place are separate tests of the same structure; such repeats can differ widely.
A dash means the value is not listed here; it may have been measured.

| # | Compound | Pks13 thioesterase | LiHisRS | Leishmania in macrophages | ClpP1P2 | Toxoplasma | CoaBC |
|---|---|---|---|---|---|---|---|
| 1 | `C[C@@H]1CN(C(=O)C2CCOCC2)C[C@]12CCN(c1cccnc1)C2=O.O=C(O)C(F)(F)F` | - | - | 14.07% | - | 2.092% | - |
| 2 | `CC(C)OCc1ncn2c1CN(CCO)CCC2` | 1.595% | 8% | - | -8.86% | - | 2.664% |
| 3 | `CC(O)CN1CCC(CNCc2cccc(C(N)=O)c2)CC1` (configuration not stated) | 108% | 14.29% | 24.83% | 5.851% | 5.227% | 6.05% |
| 4 | `Cc1c(CN2CC[C@@H](N3CCC(O)CC3)[C@H](O)C2)[nH]c2ccc(Cl)cc12` | 1.174% | 14.29% | 82.7% | -3.748% | 29.56% | 0.9639% |
| 5 | `COCCCN1C(=O)CC[C@H]2CN(Cc3ccc4occc4c3)CC[C@H]21` | -8.863% | 1.613% | - | -3.909% | - | 1.572% |
| 6 | `CO[C@H]1CN(C(=O)c2ccc3oc(C)cc3c2)CC[C@@]12CCCO2` | -19.23% | 2.778% | 16.11% | 0.2278% | -1.345% | 3.333% |
| 7 | `[H][C@]12CC[C@@]3(N=C(CC)N(C)C3=O)[C@@]1([H])CN(CC)C2` | - | - | 36.22% | - | -20.66% | - |
| 8 | `CC(C)c1cnc(CN2C(=O)CC3(CCSC3)C2=O)o1` (configuration not stated) | -21.67% | 1.724% | 0.6072% | -4.143% | 2.564% | 4.925% |
| 9 | `CC(CN1CCOCC1)OC(=O)c1ccccc1I` (configuration not stated) | 7.537% | 12.5% | - | -15.82% | - | 0.6329% |
| 10 | `Cc1cnn(C2CN(CC(=O)NCCc3cccs3)C2)c1` | -9.071% | 14.91% | -7.38% | -9.054% | -5.816% | 4.302% |
| 11 | `Cc1ccnc(N2CCC(C(N)=O)CC2)n1` | -10.99% | 5.714% | 15.52% & -5.757% | 17.62% | 11.85% | 0.3614% |
| 12 | `CC(=O)N1CCN(Cc2cccs2)CC2(CC(=O)N(C)C2)C1` (configuration not stated) | -10.96% | 32.11% | - | -1.386% | - | 1.882% |
| 13 | `COCc1ccc(C(=O)N2CCOCC2c2ccc(C)o2)cc1` (configuration not stated) | -12.23% | 16.96% | 18.1% | -1.007% | 2.791% | 3.719% |
| 14 | `CC(NC1CCN(CCc2ccncc2)CC1)c1cnn(C(C)C)c1` (configuration not stated) | -7.537% | 1.205% | 6.548% | -9.615% | 6.247% | 3.924% |
| 15 | `CC(C)[C@H](N)CC(=O)Nc1nc(-c2cnc(N3CCOCC3)nc2)cs1` | 24.62% | 20% | - | 2.627% | - | 3.253% |
| 16 | `Cn1cc(CN2CCCN(C(=O)c3ccc4ccccc4n3)CC2)cn1` | -13.28% | 0.9259% | 30.85% | -17.48% | 7.825% | 0.2632% |
| 17 | `CC(C)Oc1ccc(C(=O)N2CCC(Nc3cccnn3)CC2)cn1` | -12.2% | 13.27% | 14.42% | -57.02% | 11.73% | 5.483% |
| 18 | `Cc1cnn(CCNCC(O)c2ccc(C(F)(F)F)cc2)c1` (configuration not stated) | -20.31% | 0% | 6.353% | -2.874% | -2.387% | -5.357% |
| 19 | `CN(C)C(=O)CN1CCCc2c(F)cc(Br)cc21` | -14.89% | 13.33% | 2.758% | -16.02% | -5.029% | -0.2451% |
| 20 | `CCOCc1ccccc1NC(=O)NC1CCN(CC(F)(F)F)C1` (configuration not stated) | -35.72% | 17.95% | 15.8% | 3.387% | 3.302% | 0.2012% |
| 21 | `CCc1cnc(CN(C)C(=O)NC2CCN(c3ccccc3)C2)s1` (configuration not stated) | -21.74% | 28.33% | -0.7848% | 0.9086% | -2.38% | 7.561% |
| 22 | `COc1cccc(CCC2CCCN(C(=O)c3ccccn3)C2)c1` (configuration not stated) | 5.392% | 6.4% | -9.271% | -22.26% | 12% | 6.585% |
| 23 | `Cc1nn(CCN2CCSCC2)cc1CNCc1ccccn1` | 3.262% | -3.279% | 17.56% | -4.886% | 29.53% | -4.665% |
| 24 | `COc1cc(-c2nc(N)n[nH]2)cc(OC)c1OC` | -13.53% | 9.89% | -22.6% | -2.436% | -4.806% | -2.651% |
| 25 | `Cc1cnn(CC2CN(Cc3nc4ccccc4o3)CCO2)c1` (configuration not stated) | -10.87% | 15.04% | 16.25% | -50.06% | 3.469% | 1.044% |
| 26 | `CC(C)N1CCC2(CC1)C(=O)N(c1cccnc1)c1ccc(F)cc12` | -21.95% | 2.564% | - | 7.066% | - | -6.25% |
| 27 | `CS(=O)(=O)N1CCC2(CC1)CC(NCc1ccco1)c1ccccc12` (configuration not stated) | -17.15% | 15.84% | - | 9.168% | - | 1.609% |
| 28 | `CC(C(=O)NCCOc1ccc2c(c1)CCC2)n1cncn1` (configuration not stated) | -13.36% | 3.39% | 11.25% | -2.02% | 3.446% | -0.5249% |
| 29 | `CCOc1ccnc(N2CCN(C(=O)CCc3cnn(C)c3)CC2)n1` | -29.4% | 11.43% | 13.98% | -1.21% | 7.757% | 1.944% |
| 30 | `CN(C)Cc1ccnc(NS(=O)(=O)Cc2cccc(F)c2)c1` | -3.519% | 16.85% | 31.48% | -0.2812% | 12.72% | -3.906% |
| 31 | `Cc1ccccc1CN1CCCN(C2CCOC2=O)CC1` (configuration not stated) | -2.96% | 16.67% | 15.34% | -4.812% | -1.321% | 4.626% |
| 32 | `N#Cc1cccnc1Oc1cc(F)c(CN2CCCC2)c(Cl)c1` | -5.777% | 20.41% | 21.92% | 11.73% | 1.083% | 1.488% |
| 33 | `Cc1n[nH]c(C)c1CCCN(C)c1cc(N(C)C)ncn1` | -0.8131% | 11.29% | 5.822% | -1.063% | 15.38% | 0.1233% |
| 34 | `O=C(NCc1ccc2c(c1)CCCO2)c1cn2c(n1)CNCC2` | -24.36% | 22.58% | 23.53% | -8.214% | -3.386% | -0.1218% |
| 35 | `c1ccc(C2CCN(c3cncc(-n4cccn4)n3)CC2)cc1` | -12.91% | 19.23% | -15.38% | 2.811% | -4.662% | 11.8% |
| 36 | `Cn1cc(CN2CCc3ncnc(N4CCCC4)c3CC2)cn1` | -39.56% | 17.54% | 10.26% & 16.85% | 2.926% | 15.18% | 9.091% |
| 37 | `CN(C)C(=O)c1cn[nH]c1C1CCCN1Cc1nccn1C` (configuration not stated) | -3.234% | 14.77% | - | -36.22% | - | 0.9132% |
| 38 | `CCc1nc(C2CCCN2CCCSC)no1` (configuration not stated) | -15.19% | 8.929% | 8.409% | -16.03% | -14.65% | 3.929% |

For reference, 4 entries once more:

Compound,Pks13 thioesterase,LiHisRS,Leishmania in macrophages,ClpP1P2,Toxoplasma,CoaBC
CN(C)Cc1ccnc(NS(=O)(=O)Cc2cccc(F)c2)c1,-3.519%,16.85%,31.48%,-0.2812%,12.72%,-3.906%
CC(C)OCc1ncn2c1CN(CCO)CCC2,1.595%,8%,-,-8.86%,-,2.664%
Cn1cc(CN2CCCN(C(=O)c3ccc4ccccc4n3)CC2)cn1,-13.28%,0.9259%,30.85%,-17.48%,7.825%,0.2632%
CO[C@H]1CN(C(=O)c2ccc3oc(C)cc3c2)CC[C@@]12CCCO2,-19.23%,2.778%,16.11%,0.2278%,-1.345%,3.333%